Test results reported in article PMC8068195.
No constants are given. Whether binding was seen depends on the method and setting. For part of these data: In cells and extracts the contact can be indirect. Some binding calls cover weakened binding; strength is not graded here. One block for each binder: values may come before it.

Chains of the proteins cited; added tags and fusions are not shown. Lines headed by an entry give the natural chain unless they say otherwise; changes in a name come on top. A line that says so, or that is headed by a name, gives the form on record, which may keep a tag or linker.
Myc-TCF4 C-terminal domain (a.a 501-671) (P15884, form named): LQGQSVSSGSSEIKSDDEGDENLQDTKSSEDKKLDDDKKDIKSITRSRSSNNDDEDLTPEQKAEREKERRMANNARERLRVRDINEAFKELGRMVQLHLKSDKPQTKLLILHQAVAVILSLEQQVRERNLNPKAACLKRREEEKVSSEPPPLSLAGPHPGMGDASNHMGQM
recombinant TCF4 protein (P15884, form named): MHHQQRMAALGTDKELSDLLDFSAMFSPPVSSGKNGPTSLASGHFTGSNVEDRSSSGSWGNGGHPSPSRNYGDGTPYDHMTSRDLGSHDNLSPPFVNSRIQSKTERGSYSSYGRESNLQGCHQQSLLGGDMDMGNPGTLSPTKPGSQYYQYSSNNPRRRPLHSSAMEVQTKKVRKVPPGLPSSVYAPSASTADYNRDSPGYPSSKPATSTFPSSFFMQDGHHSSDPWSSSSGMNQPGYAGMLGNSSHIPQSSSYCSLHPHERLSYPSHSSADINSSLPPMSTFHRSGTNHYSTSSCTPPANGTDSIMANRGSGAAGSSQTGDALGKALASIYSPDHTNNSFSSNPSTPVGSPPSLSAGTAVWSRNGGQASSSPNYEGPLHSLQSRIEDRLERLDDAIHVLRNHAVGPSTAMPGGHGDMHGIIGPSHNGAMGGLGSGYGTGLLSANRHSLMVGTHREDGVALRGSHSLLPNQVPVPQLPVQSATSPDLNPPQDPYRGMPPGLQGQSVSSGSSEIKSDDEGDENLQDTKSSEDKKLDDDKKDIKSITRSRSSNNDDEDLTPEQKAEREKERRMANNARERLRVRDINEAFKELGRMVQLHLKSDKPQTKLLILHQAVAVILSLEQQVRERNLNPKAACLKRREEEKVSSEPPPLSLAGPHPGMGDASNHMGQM

Assays:
[1] = biological target: Myc-TCF4 C-terminal domain (a.a 501-671) (UniProt P15884); test: co-IP; HEK293T transiently transfected, 24 h; lysis in 1% CHAPS, 150 mM NaCl; anti-Flag, anti-ID1, anti-TCF4 or anti-Myc with protein A/G agarose beads, 24 h at 4 °C; washed three times with 200 mM NaCl; Western blot
[2] = biological target: Myc-tagged TCF4 (transcription factor 4), full length (UniProt P15884); test: as above
recombinant TCF4 protein = recombinant TCF4 protein (UniProt P15884); test: co-IP; in vitro, recombinant TCF4, TWIST1 and ID1; precipitated with anti-TCF4 or anti-IgG antibodies; Western blot; both purified

binding [1]: binds | binding [2]: binds
B1: ID1 (inhibitor of DNA binding 1), ectopically expressed (protein, UniProt P41134 1-155)
chain: MKVASGSTATAAAGPSCALKAGKTASGAGEVVRCLSEQSVAISRCAGGAGARLPALLDEQQVNVLLYDMNGCYSRLKELVPTLPQNRKVSKVEILQHVIDYIRDLQLELNSESEVGTPGGRGLPVRAPLSTLNGEISALTAEAACVPADDRILCR

binding (recombinant TCF4 protein): binds
B2: recombinant ID1 protein (protein, UniProt P41134 1-155)
chain: B1 chain
